# Assay results taken from PubChem BioAssay AID493014 (National Center for Advancing Translational Sciences (NCATS), 2011).
# The list shows a part of the results. Further columns of the screen follow, without active or inactive calls. The list favours compounds with an active or inconclusive main result. The note in brackets gives the kind of curve behind each potency; many fits are weak.
# Experiment: qHTS Assay to Find Inhibitors of Chronic Active B-Cell Receptor Signaling
# Conditions: ABC-DLBCL IkBa-CBG/CBR reporter, luminescence ratio (green luciferase fused to IkBa over red control in TMD8 lymphoma cells), 4 h
# Summary of the method: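 TMD8 ABC-DLBCL cells carrying doxycycline-inducible green luciferase fused to IkappaBalpha plus unfused red luciferase were exposed to compounds (up to 46 uM) for 4 hrs at 37C. Activity came from the overlap-corrected green/red luminescence ratio.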
# [1] = measured here: CBR red luminescence, cell number
# [2] = measured here: IkBa-CBG green luminescence
Compound,AC50 [1],AC50 [2]
CCCC(=O)N(c1ccc2oc(=O)sc2c1)S(=O)(=O)c1cccs1,"35.5 µM [falling, single point]",
Cc1ccc(CNC(=O)C2CC3Cn4c(nc5cc6ccccc6cc54)C3N2C)o1 (stereo unspecified),"4.47 µM [falling, full curve]",
CN1C(=O)/C(=C/c2ccccc2Cl)Sc2ccc(C(=O)NCc3cccnc3)cc21,"35.5 µM [falling, single point]",
COc1ccc(C2=C(Nc3ccccc3)c3ccccc3C2=O)cc1,"0.517 µM [rising, full curve, poor fit]",
CC(C)c1ccc(OCc2ccc(C(=O)N3CCN(c4ccccn4)CC3)cc2)cc1,"3.55 µM [rising, single point]",
COc1ccc2sc(-c3ccc(N(C)C)cc3)c(C#CCCO)c2c1,"1.84 µM [rising, partial curve]",
O=C1c2cccc3cccc(c23)C(=O)N1Cc1ccccc1,"0.501 µM [falling, full curve, poor fit]",
O=C(N/N=C/c1ccc(Sc2ccccn2)o1)c1cc2ccccc2cc1O,"13 µM [falling, partial curve]",
Cc1cc(C)c(C)c(S(=O)(=O)N2CCN(C(=O)c3ccccn3)CC2)c1C,"2.59 µM [rising, full curve, poor fit]",
NCC(c1ccccc1)c1c[nH]c2ccccc12 (stereo unspecified),"20 µM [falling, partial curve, poor fit]",
O=C(Nc1cnc2ccccn2c1=O)c1ccc(Cl)cc1Cl,"7.94 µM [rising, partial curve, poor fit]",
Cc1cc(C(=O)COC(=O)/C=C/c2cccc(F)c2)c(C)n1C,"7.94 µM [rising, partial curve, poor fit]",
CCOC(=O)[C@H]1[C@H]2COc3ccc(Cl)cc3[C@@H]2N2C(=O)c3ccc(Cl)cc3NC(=O)[C@@]12C,"2.59 µM [falling, single point]",
Nc1ncnc(Sc2ccc(Cl)cc2)c1[N+](=O)[O-],"2.06 µM [falling, full curve]",
O=C(/C=C/c1ccc(Cl)c([N+](=O)[O-])c1)c1ccc(O)cc1,"15.8 µM [falling, partial curve]","15.8 µM [rising, partial curve, poor fit]"
C[C@@H]1C(=O)O[C@H]2[C@H]1CC[C@@]1(C)C(=O)C=C[C@@](C)(O)[C@H]21,"11.2 µM [rising, partial curve, poor fit]",
C/C(=N\O)C(C)(C)NC(=O)Nc1ccc(Cl)cc1,"9.2 µM [rising, partial curve, poor fit]",
O=C1c2ccccc2C(=O)N1CCn1nc(Cl)nc1Cl,"0.206 µM [rising, partial curve, poor fit]",
Cc1cc(N/N=C/c2cccc(F)c2)nc(NCc2ccccc2)n1,"8.91 µM [rising, partial curve, poor fit]",
COc1ccc(OC)c(N2C(=O)CC(Cc3cc(C)cc(C)c3)C2=O)c1 (stereo unspecified),"29.1 µM [rising, single point]",
FC(F)(F)c1cc(-c2ccccc2)nc(-n2cc(Cl)cn2)n1,"10 µM [falling, partial curve, poor fit]",

Compound,AC50 [1],AC50 [2]
O=C(COc1ccc([N+](=O)[O-])cc1)Nc1ccc(C(=O)Nc2ccccc2C(=O)O)cc1,"12.6 µM [falling, partial curve, poor fit]",
Cc1cc(C(=O)N/N=C/c2ccc(O)c([N+](=O)[O-])c2)n[nH]1,"10.3 µM [falling, partial curve, poor fit]",
COc1ccc(N(C)C(=O)c2cn(CC(C)C)c(=O)c3cc(OC)c(OC)cc23)c(OC)c1,"35.5 µM [falling, single point]",
CCc1nnc(NC(=O)CSc2nnc3c(C)cc4c(C)ccc(C)c4n23)s1,"18.4 µM [rising, partial curve, poor fit]",
Cc1ccc(-c2csc3ncnc(SCC(=O)NCC4CCCO4)c23)cc1 (stereo unspecified),"29.1 µM [falling, single point]",
CCOC(=O)CSc1nnc(CNC(=O)Cc2ccccc2)n1-c1ccccc1OC,"7.08 µM [falling, partial curve]",
COC(=O)c1sc(N2C(=O)c3oc4ccccc4c(=O)c3C2c2cccs2)nc1C (stereo unspecified),"1.84 µM [rising, partial curve, poor fit]",
O=C(Nc1ccccc1)c1cc2n(n1)C(C(F)(F)F)CC(C1CC1)N2 (stereo unspecified),"0.631 µM [rising, partial curve, poor fit]",
CC(=O)Nc1ccc(NC(=O)/C(Cl)=C/c2ccccc2)cc1,"0.891 µM [rising, full curve]",
CCN1CCN(CC(O)COc2ccc3c(C)cc(=O)oc3c2)CC1 (stereo unspecified),"4.47 µM [rising, partial curve, poor fit]",
CC(NC(=O)OCc1ccccc1)C(=O)N1CC(O)CC1C(=O)O (stereo unspecified),"0.0461 µM [falling, full curve, poor fit]",
COc1cc(SC)ccc1C(=O)Nc1cc(C)ccn1,"6.31 µM [falling, partial curve]",
CC(=O)N1CCC(N(C(=O)Nc2ccc(Cl)cc2)C(C)C)CC1,"11.2 µM [rising, partial curve, poor fit]",
Oc1[nH]c2ccc(Br)cc2c1N=NC(=S)NCC1CCCO1 (stereo unspecified),"3.98 µM [rising, single point]","5.62 µM [falling, single point]"
CCCOc1cccc(C(=O)NCCNC(=O)c2ccccn2)c1,"35.5 µM [rising, single point]","11.2 µM [falling, partial curve, poor fit]"
Cc1cc(C)cc(NC(=O)c2ccc([N+](=O)[O-])o2)c1,"3.16 µM [falling, single point]",
O=C(NNc1nc2ccc(F)cc2s1)c1cccc(F)c1,"12.6 µM [falling, partial curve, poor fit]",
Cc1ccc(NC(=O)Nc2ccccc2CC[N+](=O)[O-])cc1,"11.2 µM [falling, partial curve, poor fit]",
CCOC(=O)CSc1nc(N)c(C(=O)Nc2ccc(N(C)C)cc2)s1,"35.5 µM [falling, single point]",
Cc1[nH]c2ccccc2c1C(=O)CSc1ccccc1,"1.84 µM [rising, full curve]",
Cc1cc(C)c(C2C(C#N)=C(N)Oc3n[nH]c(C)c32)cc1CN1CCCC1 (stereo unspecified),"5.8 µM [falling, partial curve]",

Compound,AC50 [1],AC50 [2]
O=C(Nc1nnc(-c2ccco2)o1)c1ccc([N+](=O)[O-])s1,"5.01 µM [falling, full curve]",
CN(C)C(=O)c1cc2cc(Br)ccc2s1,"7.08 µM [rising, partial curve]",
O=C(Nc1cccc(Cl)c1)N1CCc2ccccc2C1,"11.2 µM [falling, partial curve, poor fit]",
CCC(Sc1ncnc2c1nnn2-c1ccc(F)cc1)C(=O)OC (stereo unspecified),"35.5 µM [falling, single point]",
O=C(NNC(=S)NCC1CCCO1)c1cc(Br)ccc1Cl (stereo unspecified),"31.6 µM [rising, single point]",
COC(=O)C(C)n1cnc2c(nnn2-c2ccccc2)c1=O (stereo unspecified),"0.447 µM [rising, full curve, poor fit]",
CC(C)C(=O)Nc1cccc(NC(=O)c2cc3ccccc3o2)c1,"0.731 µM [falling, partial curve]",
CN(C(=O)COC(=O)/C=C/c1ccc2ccccc2n1)C1CCS(=O)(=O)C1 (stereo unspecified),"8.91 µM [falling, partial curve]",
CCCCCCOC(=O)/C=C/c1c(C)[nH]c(=O)[nH]c1=O,"14.6 µM [rising, partial curve, poor fit]",
CCOCc1nnc(NC(=O)c2ccco2)s1,"1.46 µM [rising, full curve]",
COc1ccc(/C=N/Nc2nc(Nc3ccccc3)nc(N3CCCCC3)n2)cc1OC,"1.12 µM [falling, partial curve]",
CCCCOC(=O)c1ccc(NC(=S)NC(=O)c2ccco2)cc1,"35.5 µM [rising, single point]",
COc1ccccc1N1CCN(C2CCCN(C(=O)c3cccc(-c4ccco4)c3)C2)CC1 (stereo unspecified),"6.31 µM [falling, full curve, poor fit]",
Cc1ccc2c(c1)[C@H]1[C@H](CO2)[C@H](c2ccccc2)[C@]2(C)C(=O)Nc3ccccc3C(=O)N12,"3.26 µM [falling, full curve]","3.66 µM [rising, partial curve, poor fit]"
O=C(Nc1cccc(Cl)c1)c1cc2c(=O)n3ccccc3nc2s1,"2.82 µM [rising, partial curve, poor fit]",
CCCOc1ccc(C(=O)Nc2ccc3c(c2)OCO3)cc1,"1.12 µM [falling, full curve, poor fit]",
Cc1ccc(Cn2ccc(NC(=O)CCSc3nc(-c4ccco4)cc(C(F)(F)F)n3)n2)cc1,"0.0058 µM [rising, full curve, poor fit]",
COCCCNC(=O)c1cn(C)c(=O)c2c1c1ccccc1n2C,"15.8 µM [rising, partial curve, poor fit]",
Cc1nc(N)sc1C(=O)N/N=C/c1ccccc1[N+](=O)[O-],"6.31 µM [falling, partial curve, poor fit]",
COc1cccc(C(=O)n2c(SC)nc3cc4c(cc32)OCCO4)c1,"3.98 µM [falling, full curve, poor fit]",

# One compound at a time (already shown).
# COC(=O)C(C)n1cnc2c(nnn2-c2ccccc2)c1=O (stereo unspecified) is listed with AC50 [1]: 0.447 µM [rising, full curve, poor fit]
# CCCOc1ccc(C(=O)Nc2ccc3c(c2)OCO3)cc1 is listed with AC50 [1]: 1.12 µM [falling, full curve, poor fit]
# COc1cccc(C(=O)n2c(SC)nc3cc4c(cc32)OCCO4)c1 is listed with AC50 [1]: 3.98 µM [falling, full curve, poor fit]
# Cc1ccc2c(c1)[C@H]1[C@H](CO2)[C@H](c2ccccc2)[C@]2(C)C(=O)Nc3ccccc3C(=O)N12 is listed with AC50 [1]: 3.26 µM [falling, full curve]; AC50 [2]: 3.66 µM [rising, partial curve, poor fit]
